Record: PubChem BioAssay AID686943 (Drosophila RNAi Screening Center, 2013)
In all, the deposit lists about 23,000 reagents; this is a random part of those that have a named target and a result. 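Extra replicates exist only for a retested subset of genes; insulin dose and duration not given; both raised and lowered dpERK matter.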 The numbers tell different reagents against one gene apart. A plus sign joins genes that one reagent is predicted to hit. Further read-outs or replicates are left out here. The record does not give: the amount of reagent, the time to read-out.

Aim: 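Fly genes whose loss alters ERK activation after insulin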 (primary screen)
Cell system: Drosophila S2R+ haemocyte-like cells expressing YFP-tagged ERK (Rolled)
Reagent: long dsRNA against Drosophila genes
Conditions: insulin stimulation versus unstimulated cells; dose and duration not given
Measurement: 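Per-plate z-scores of phospho-ERK immunostaining normalised to YFP-tagged ERK, measured with and without insulin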
Reading the numbers: replicate 1, z-score of dpERK with insulin and replicate 2, z-score of dpERK with insulin: higher = more active ERK per ERK-YFP after insulin

CG6567 + CG4565
- replicate 1, z-score of dpERK with insulin: 0.03
- replicate 2, z-score of dpERK with insulin: 0.2

CG17687
- replicate 1, z-score of dpERK with insulin: -0.67
- replicate 2, z-score of dpERK with insulin: 0.02

Septin2 (Septin 2)
- replicate 1, z-score of dpERK with insulin: -0.14
- replicate 2, z-score of dpERK with insulin: -0.05

lqfR (liquid facets-Related) #1
- replicate 1, z-score of dpERK with insulin: -0.08
- replicate 2, z-score of dpERK with insulin: 0.04

lqfR (liquid facets-Related) #2
- replicate 1, z-score of dpERK with insulin: 0.94
- replicate 2, z-score of dpERK with insulin: 0.96

CG34012
- replicate 1, z-score of dpERK with insulin: -0.68
- replicate 2, z-score of dpERK with insulin: -0.7

gig (gigas)
- replicate 1, z-score of dpERK with insulin: -1.76
- replicate 2, z-score of dpERK with insulin: -1.8

RnpS1 (RNA-binding protein S1)
- replicate 1, z-score of dpERK with insulin: 1.67
- replicate 2, z-score of dpERK with insulin: 0.94

Ir67b (Ionotropic receptor 67b)
- replicate 1, z-score of dpERK with insulin: 0.39
- replicate 2, z-score of dpERK with insulin: 1.63

Mob3 (MOB kinase activator 3)
- replicate 1, z-score of dpERK with insulin: -0.32
- replicate 2, z-score of dpERK with insulin: 0.5

Prosalpha6T (Proteasome alpha6 subunit, Testis-specific)
- replicate 1, z-score of dpERK with insulin: -1.68
- replicate 2, z-score of dpERK with insulin: -0.63

CG6695
- replicate 1, z-score of dpERK with insulin: -2.18
- replicate 2, z-score of dpERK with insulin: -0.69

CG12895
- replicate 1, z-score of dpERK with insulin: 0.03
- replicate 2, z-score of dpERK with insulin: 0.58

LRP1 (LDL receptor protein 1)
- replicate 1, z-score of dpERK with insulin: 0.26
- replicate 2, z-score of dpERK with insulin: 0.19

asRNA:Eig63F-2 + Eip63F-1
- replicate 1, z-score of dpERK with insulin: -0.27
- replicate 2, z-score of dpERK with insulin: -0.28

CG5412
- replicate 1, z-score of dpERK with insulin: 0.04
- replicate 2, z-score of dpERK with insulin: -0.14

wam (wampa)
- replicate 1, z-score of dpERK with insulin: -1.68
- replicate 2, z-score of dpERK with insulin: -0.24

CG30480
- replicate 1, z-score of dpERK with insulin: 0.34
- replicate 2, z-score of dpERK with insulin: 0.34

CG31559 #1
- replicate 1, z-score of dpERK with insulin: 0.05
- replicate 2, z-score of dpERK with insulin: 1.5

CG31559 #2
- replicate 1, z-score of dpERK with insulin: 0.38
- replicate 2, z-score of dpERK with insulin: 0.43

Cpr67B (Cuticular protein 67B)
- replicate 1, z-score of dpERK with insulin: -0.19
- replicate 2, z-score of dpERK with insulin: -0.17

Dhc36C (Dynein heavy chain at 36C)
- replicate 1, z-score of dpERK with insulin: 0.18
- replicate 2, z-score of dpERK with insulin: -0.89

Snx1 (Sorting nexin 1)
- replicate 1, z-score of dpERK with insulin: 0.44
- replicate 2, z-score of dpERK with insulin: -0.62

CG31861
- replicate 1, z-score of dpERK with insulin: -0.1
- replicate 2, z-score of dpERK with insulin: -1.24

Ada2a + Polr2D #1
- replicate 1, z-score of dpERK with insulin: 0.24
- replicate 2, z-score of dpERK with insulin: 0

Ada2a + Polr2D #2
- replicate 1, z-score of dpERK with insulin: 3.44
- replicate 2, z-score of dpERK with insulin: 2.25

CG31546
- replicate 1, z-score of dpERK with insulin: -0.06
- replicate 2, z-score of dpERK with insulin: -0.12

RhoGAP100F (Rho GTPase activating protein at 100F)
- replicate 1, z-score of dpERK with insulin: -0.23
- replicate 2, z-score of dpERK with insulin: -0.28

Uqcc1 + CG9948
- replicate 1, z-score of dpERK with insulin: -0.4
- replicate 2, z-score of dpERK with insulin: -0.97

Cenp-C (Centromeric protein-C)
- replicate 1, z-score of dpERK with insulin: 0.18
- replicate 2, z-score of dpERK with insulin: -0.2

Pbp45 (PSEA-binding protein 45kD)
- replicate 1, z-score of dpERK with insulin: 0.98
- replicate 2, z-score of dpERK with insulin: 0.48
